PubChem BioAssay AID1259308 – NCATS – 2017

Aim: 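Knock-downs that increase output of a recombinant reporter protein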 (primary screen)
Cells: human HEK293 embryonic kidney cells stably expressing firefly luciferase (HEK-CMV-Luc2-Hygro)
Reagent: single siRNA against human genes, 0.8 pmol siRNA per well
Duration: 72 h
Measured: 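Luciferase light (ONE-Glo) measured on one replicate plate set and viability (CellTiter-Glo) on the other, scaled to a negative control siRNA, with robust z-scores and luciferase per cell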
Scale: total luciferase, z-score: higher = more reporter protein produced
Active means: 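Active when the median/MAD z-score for overall luciferase is greater than 3; a gene was taken forward for validation with new siRNAs if at least two of its three siRNAs passed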
Meaning of the calls: active = raised luciferase; inactive = no rise
The whole screen tested about 59,000 reagents; shown is a part drawn at random. Over the whole deposit, about 1,510 (2.6%) were called active. 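Calls use total luciferase alone and ignore viability, so some active siRNAs may act by altering cell number.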 Entries without a mark were called inactive. The numbers tell different reagents against one gene apart. Not all columns of the deposit are shown.

Against TEX10 (testis expressed 10) #1, the values are total luciferase, z-score 0.273. With knock-down of TEX10 (testis expressed 10) #2 the results were total luciferase, z-score 1.16. Against TEX10 (testis expressed 10) #3, the values are total luciferase, z-score 0.255. Depletion of FGB (fibrinogen beta chain) #1 came out at: total luciferase, z-score -0.957. For FGB (fibrinogen beta chain) #2, the entry reads total luciferase, z-score 3.45 (active). With knock-down of FGB (fibrinogen beta chain) #3, the record shows total luciferase, z-score 0.0356.

Against PTPRK (protein tyrosine phosphatase receptor type K) #1, the values are total luciferase, z-score 0.157. PTPRK (protein tyrosine phosphatase receptor type K) #2 showed total luciferase, z-score -0.501. With knock-down of PTPRK (protein tyrosine phosphatase receptor type K) #3, the screen gave total luciferase, z-score 0.0822. For SUV39H2 (SUV39H2 histone lysine methyltransferase) #1, the values are total luciferase, z-score -1.2. Against SUV39H2 (SUV39H2 histone lysine methyltransferase) #2, the entry reads total luciferase, z-score -0.96. For SUV39H2 (SUV39H2 histone lysine methyltransferase) #3, the entry reads total luciferase, z-score 1.21.

PRUNE2 (prune homolog 2 with BCH domain) #1 gave total luciferase, z-score 0.178. PRUNE2 (prune homolog 2 with BCH domain) #2 gave total luciferase, z-score -0.0898. Silencing of PRUNE2 (prune homolog 2 with BCH domain) #3 resulted in: total luciferase, z-score 0.177. With knock-down of SPART-AS1 (SPART antisense RNA 1) #1, the screen gave total luciferase, z-score -0.498. SPART-AS1 (SPART antisense RNA 1) #2 scored total luciferase, z-score -0.521. Knock-down of SPART-AS1 (SPART antisense RNA 1) #3 gave: total luciferase, z-score 0.361.

Against CDC50CP (CDC50 family member C, pseudogene) #1 the deposit lists total luciferase, z-score -0.998. Against CDC50CP (CDC50 family member C, pseudogene) #2, the values are total luciferase, z-score 0.666. CDC50CP (CDC50 family member C, pseudogene) #3 scored total luciferase, z-score 0.0203. Silencing of SLC39A3 #1 resulted in: total luciferase, z-score 0.138. SLC39A3 #2 gave total luciferase, z-score 0.186. Against SLC39A3 #3, the values are total luciferase, z-score 1.11.

For GNPAT (glyceronephosphate O-acyltransferase) #1, the values are total luciferase, z-score -0.898. Against GNPAT (glyceronephosphate O-acyltransferase) #2, the entry reads total luciferase, z-score -0.93. With knock-down of GNPAT (glyceronephosphate O-acyltransferase) #3, the screen gave total luciferase, z-score -0.124. Against DCX (doublecortin) #1, the values are total luciferase, z-score 0.842. Silencing of DCX (doublecortin) #2 gave: total luciferase, z-score -0.782. DCX (doublecortin) #3 scored total luciferase, z-score -1.03.

Depletion of TMEM218 (transmembrane protein 218) #1 came out at: total luciferase, z-score -1.37. TMEM218 (transmembrane protein 218) #2 gave total luciferase, z-score -0.488. Against TMEM218 (transmembrane protein 218) #3 the deposit lists total luciferase, z-score 0.202.

No new results follow: 2 of the entries above.
FGB (fibrinogen beta chain) #1 → total luciferase, z-score: -0.957
FGB (fibrinogen beta chain) #2 → total luciferase, z-score: 3.45 (active)
